# Measured values taken from PubChem BioAssay AID1347076 (National Center for Advancing Translational Sciences (NCATS), 2019).
# About 13,000 (3.2%) of roughly 400,000 compounds were called active. This list was built around the results that the source calls inconclusive (neither active nor inactive); the mix of calls is not that of the screen. The call rests on the fitted dose curve; in most records, active means well fitted cell-killing curve with a large enough effect; inconclusive means small, poorly fitted or top-dose-only effect, or effect the other way; inactive means flat fitted curve, though single readings scatter. Potencies of inconclusive entries are doubtful fits and often do not repeat.
# Experiment: qHTS assay for MDR1-selective chemotherapeutics: Primary screen using the drug-selected MDR subline cells KB-V1; further: nearly all actives have a fitted effect of over 60% in size
# Settings: KB-V1 MDR cells viability, CellTiter-Glo, 72 h; activity change, negative = cytotoxicity: at 46.1 µM (top of the series)
# Outline: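 Readout: CellTiter-Glo luminescence, 10 min after addition. Cells: KB-V1 MDR subline, 72 h at 37 degrees C with compound. Analysis: corrected, normalized data fitted to concentration-effect curves.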
# On the % scale 0 is the no-effect control and ±100 the full control effect; potency means the concentration at half of the fitted maximal effect.
Structure (SMILES),Potency,"activity change, negative = cytotoxicity"
O=S(=O)(c1cccs1)N1CCN(Cc2ccccc2)CC1,active: 16.4 µM,
COc1cc(CO)cc(Br)c1OCC(=O)O,,inconclusive: -12.3%
CCN(CC)c1ccc(NS(=O)(=O)c2cc3[nH]c(=O)c(=O)[nH]c3cc2C)c(C)c1,"inconclusive: 18.4 µM [rising, single point]",
Cc1cc2oc(C(=O)Nc3ccc(S(=O)(=O)N4CCCCCC4)cc3)cc(=O)c2cc1C,"inconclusive: 10.3 µM [rising, partial curve, poor fit]",
Cc1cc(SCC(=O)Nc2ccccc2)n2ncc(-c3ccccc3)c2n1,"inconclusive: 23.1 µM [cytotoxic, single point]",
CCCCn1nnnc1C(c1cc2ccccc2o1)N1CCN(c2cc(C)nc3ccccc23)CC1 (stereo not drawn),"inconclusive: 29.1 µM [cytotoxic, single point]",
COc1ccc(C2=NOC(C(=O)N3CCCCCC3)C2)cc1OC (stereo not drawn),active: 18.4 µM,
Cc1ccc(S(=O)(=O)NCCCCCC(=O)Nc2cccc(C)c2)cc1,"inconclusive: 8.2 µM [cytotoxic, partial curve]",
CC(Oc1ccc(F)cc1)C(=O)Nc1cccc(-c2nn[nH]n2)c1 (stereo not drawn),"inconclusive: 29.1 µM [rising, single point]",
CCc1nc(Oc2cccc(F)c2)c2oc3ccccc3c2n1,,inactive: -6.7%
CC(C)=NOC(=O)c1ccc(-c2ccccc2)cc1,"inconclusive: 6.51 µM [rising, partial curve]",
O=c1c2ccc(F)cc2sn1-c1ccccc1,"inconclusive: 29.1 µM [cytotoxic, single point]",
COc1cc(/C=C/C(=O)OCC(=O)Nc2ccc3[nH]c(=O)[nH]c3c2)ccc1OC(F)F,"inconclusive: 18.4 µM [rising, single point]",
O=C(NC(=S)Nc1cccc(S(=O)(=O)NC2=NCCC2)c1)c1cc(-c2ccco2)nc2ccccc12,,inactive: 0%
Fc1cc(F)c(F)c(SCCc2ccncc2)c1F,"inconclusive: 23.1 µM [cytotoxic, single point]",
CC1CCCCN1CCn1c(=S)[nH]c2ncccc2c1=O (stereo not drawn),,inactive: -2.07%
COC(=O)c1ccc(C2C(C(=O)Nc3ccccc3)=C(C)Nc3nc4ccccc4n32)cc1 (stereo not drawn),,inactive: -5.17%
CC(=O)C1CCN(c2ncc(-c3cccc(N(C)C)c3)s2)CC1,,inactive: 0%
Cc1ccc(/C=N/NC(=O)Cc2ccc(Cl)cc2)c(O)c1,active: 7.31 µM,
CC(=O)N1CCc2c(sc3nc(SCC(C)C)n(-c4ccc(F)c(Cl)c4)c(=O)c23)C1,,inactive: 0%
Cc1ccccc1N1CCN(CCN2C(=O)CC(=C3c4ccccc4-c4ccccc43)C2=O)CC1,"inconclusive: 8.2 µM [cytotoxic, partial curve, poor fit]",
Cc1cc(C(c2ccc(O)cc2)c2cc(C)c(O)cc2C)c(C)cc1O,"inconclusive: 20.6 µM [rising, single point]",
COc1cccc(N2CCN(C(=O)Cn3c(-c4cccs4)cc4ccccc43)CC2)c1,"inconclusive: 8.2 µM [cytotoxic, partial curve]",
Cc1ccc(CS(=O)(=O)Cc2ccc(C(=O)NCc3ccccn3)o2)cc1,"inconclusive: 29.1 µM [cytotoxic, single point]",
Cc1ccc(C(=O)Nc2ccccc2SCC2CSc3nc4ccccc4c(=O)n32)cc1 (stereo not drawn),"inconclusive: 18.4 µM [cytotoxic, partial curve]",

Structure (SMILES),Potency,"activity change, negative = cytotoxicity"
Cc1nc2c(-c3ccccc3)c[nH]n2c(=O)c1Cc1ccccc1,"inconclusive: 32.6 µM [cytotoxic, partial curve, poor fit]",
Cn1c(CCCOc2ccc(Cl)cc2Cl)n[nH]c1=S,"inconclusive: 18.4 µM [cytotoxic, partial curve, poor fit]",
O=C(CN1CCN(c2ccccc2)CC1)Nc1ccccc1Sc1ccccc1,"inconclusive: 18.4 µM [cytotoxic, single point]",
COc1cc(C(C[N+](=O)[O-])c2c(C)cc3ccccn23)ccc1O (stereo not drawn),"inconclusive: 29.1 µM [cytotoxic, single point]",
CN(C[C@H](Cc1ccccc1)N(C[C@H](Cc1ccccc1)N(CC1(c2ccccc2)CC1)N=O)N=O)N=O,,inactive: -25.8%
O=C(NC1CCCC1)C1CC(O)CN1C(=O)Nc1ccccc1 (stereo not drawn),,inactive: 2.52%
CC(C)(C)NC(=O)C(c1ccco1)N(C(=O)c1csnn1)c1ccccc1 (stereo not drawn),active: 14.6 µM,
c1ccc(SCc2nc3ccccc3s2)nc1,"inconclusive: 29.1 µM [rising, single point]",
COc1ccc2cc([C@H](C)C(=O)OCc3cn(CC(=O)c4ccc(O)cc4)nn3)ccc2c1,,inactive: 0%
COCCN=C1N[C@@H](c2ccc(Br)cc2)C(C(=O)OC)=C(C)N1Cc1ccccc1,,inactive: -1.05%
OCCC1CN(Cc2ccsc2)CCN1C1CCCC1 (stereo not drawn),"inconclusive: 29.1 µM [rising, single point]",
CC1=C(C(=O)Nc2ccc(C)cc2C)C(c2cccs2)n2nc(SCc3ccccc3Cl)nc2N1 (stereo not drawn),,inactive: -4.88%
COc1ccc(C(=O)Oc2cc(/C=N/NS(=O)(=O)c3ccc(C)cc3)ccc2OC)cc1,active: 14.6 µM,
O=C(NN=Cc1ccccc1O)C(O)c1ccccc1 (stereo not drawn),"inconclusive: 14.6 µM [cytotoxic, single point]",
CCOC(=O)CNC(=O)c1ccc2c(c1)OCCO2,,inactive: -19.3%
Cc1ccc(NC(=S)N(CCN2CCOCC2)Cc2ccccc2F)cc1,"inconclusive: 7.31 µM [cytotoxic, partial curve]",
CC1CC(C)CN(C(=O)c2ccc(S(=O)(=O)N3CC(C)CC(C)C3)cc2)C1 (stereo not drawn),"inconclusive: 8.2 µM [cytotoxic, partial curve]",
O=c1oc2ccccc2cc1-c1cn2cc(Cc3ccc(Cl)cc3)sc2n1,"inconclusive: 29.1 µM [rising, single point]",
CCOC(=O)c1c(NC(=O)COC(=O)Cn2cnc3ccccc32)sc2c1CCC(C)C2 (stereo not drawn),,inactive: 1%
CCN(Cc1ccccc1)C(=O)Cn1c(=O)n(-c2ccc(C)c(C)c2)c(=O)c2c(C)c(C)sc21,"inconclusive: 20.6 µM [rising, partial curve]",
CC(C)(C)NS(=O)(=O)c1cc(C(=O)Nc2sccc2C#N)ccc1Cl,"inconclusive: 29.1 µM [cytotoxic, single point]",
C/C(NC1CCCCC1)=C(/C#N)C(=O)NCCN1CCOCC1,,inactive: -10.8%
CCc1nc2c(OCc3ccccc3)cccn2c1N(C)C(=O)COc1ccccc1,,inactive: -1.48%
C=C1C=C(C(F)(F)F)n2ncc(C(=O)NCc3ccc(F)cc3)c2N1,,inactive: 17.6%
Cn1c(=O)n(/N=C/c2ccccc2)c2ccccc21,"inconclusive: 20.6 µM [rising, partial curve, poor fit]",

# Sorted by molar mass (rising): some entries from above.
Structure (SMILES),Potency,"activity change, negative = cytotoxicity"
Cc1nc2c(-c3ccccc3)c[nH]n2c(=O)c1Cc1ccccc1,"inconclusive: 32.6 µM [cytotoxic, partial curve, poor fit]",
CC(Oc1ccc(F)cc1)C(=O)Nc1cccc(-c2nn[nH]n2)c1 (stereo not drawn),"inconclusive: 29.1 µM [rising, single point]",
CC(C)(C)NS(=O)(=O)c1cc(C(=O)Nc2sccc2C#N)ccc1Cl,"inconclusive: 29.1 µM [cytotoxic, single point]",

# Later entries.

Structure (SMILES),Potency,"activity change, negative = cytotoxicity"
C=C1C(=O)OC2C1C(OC(=O)C(C)=CC)CC(=C)C1C(O)C3OC3(C)C21O (stereo not drawn),,inactive: 0.186%
O=C(NCC1CCCO1)C(=O)N/N=C/c1cccc(Cl)c1 (stereo not drawn),,inactive: -1.39%
CCn1cc(C(=O)N2CCN(c3ccccc3F)CC2)c(=O)c2cc(S(=O)(=O)N(C)C)ccc21,,inactive: 4.04%
O=C(c1ccco1)N1CCN(S(=O)(=O)c2cccc(C(F)(F)F)c2)CC1,"inconclusive: 18.4 µM [cytotoxic, single point]",
Cc1ccc(-c2nc(C)c(CCNS(=O)(=O)c3ccc(F)c(C(F)(F)F)c3)s2)cc1,"inconclusive: 23.1 µM [cytotoxic, single point]",
CCOc1cccc(C(=O)NC(=S)NCc2cccnc2)c1,"inconclusive: 14.6 µM [cytotoxic, partial curve]",
Cc1cc(C)n(-c2ccc(S(N)(=O)=O)cc2[N+](=O)[O-])n1,"inconclusive: 29.1 µM [rising, single point]",
Cc1ccc(Cn2c(=N)n(CC(=O)c3ccc([N+](=O)[O-])cc3)c3ccccc32)cc1,active: 14.6 µM,
CN(CC(=O)N1CCN(Cc2ccccc2)CC1)C(=O)Cc1cccc2ccccc12,,inactive: -5.42%
O=C(Nc1cccc(Cl)c1)c1cc2c(=O)[nH]c3ccccc3c2s1,,inactive: -14.1%
COc1cc2[nH]c(C(=O)Nc3ccc4c(c3)OCCO4)cc2c(OC)c1OC,"inconclusive: 4.61 µM [cytotoxic, full curve]",
CCCOc1ccc2ccccc2c1/C=N/n1c(C)nnc1-n1nc(C)cc1C,active: 5.8 µM,
O=C(Cn1nc(C(F)(F)F)cc1C1CC1)NCc1ccccc1F,"inconclusive: 16.4 µM [cytotoxic, single point]",
O=C(CCN1C(=O)/C(=C/c2cccs2)SC1=S)Nc1ccc(C(=O)O)cc1,"inconclusive: 18.4 µM [rising, partial curve, poor fit]",
Cc1cc(NC(=O)COC(=O)CCC(=O)c2ccc(F)cc2)no1,"inconclusive: 5.17 µM [rising, partial curve, poor fit]",
COc1cccc(C(=O)Nc2c(F)c(F)c(F)c(F)c2F)c1,"inconclusive: 29.1 µM [cytotoxic, single point]",
CC1(C)CCC2=C(O1)c1ccccc1C(=O)C2=O,"inconclusive: 29.1 µM [cytotoxic, single point]",
CN(C)CCNC(=O)/C=N/O,"inconclusive: 29.1 µM [rising, single point]",
Cc1cccc(Nc2nc(N)c([N+](=O)[O-])c(NCCO)n2)c1,,inactive: 1.1%
CCCc1nc2oc3c(Cl)ncnc3c2c2c1CCCC2,,inactive: 22.2%
COCCn1c(=S)[nH]c2cc(C(=O)N3CCN(c4ccccc4OC)CC3)ccc2c1=O,active: 14.6 µM,
COc1cc2c(c(OC)c1)C(c1cccc(OC)c1OC)CC(=O)N2 (stereo not drawn),"inconclusive: 29.1 µM [cytotoxic, single point]",
CC(=O)NC1=NC(=O)C(C)S1 (stereo not drawn),,inconclusive: -1.6%
